Assay results as given in the supplement of paper PMC4840960.
Structures can show the parent of a compound that is named as a salt. ± gives the standard deviation of the averaged measurements. This is one part of the list. Part of the spread comes from offsets between plates or batches.

Test system: E18 rat cortical neuron-glia co-culture
Assay: total nuclei (DAPI) / Olig2+ nuclei (ratio); higher = more depletion of OPC/OL lineage cells
Settings: treatment time: 8 days (DIV5-DIV13)

SMILES	total nuclei (1 µM)	total nuclei (5 µM)
COCCOC(=O)C1=C(C)NC(C)=C(C(=O)OC(C)C)C1c1cccc([N+](=O)[O-])c1 (centres undefined) [Nimodipine]	2.9	2.8
OC(CCN1CCCC1)(c1ccccc1)C1CCCCC1 (centres undefined) [Procyclidine]	2.91	3.1
CC(C)(C#N)c1cc(Cn2cncn2)cc(C(C)(C)C#N)c1 [Anastrozole]	3.31	2.8
NCCc1ccc(O)c(O)c1 [Dopamine]	3.2	2.9
CC(=O)NC[C@H]1CN(c2ccc(N3CCOCC3)c(F)c2)C(=O)O1 [linezolid]	2.8	2.8
COc1cc2c(cc1OC)C(=O)C(CC1CCN(Cc3ccccc3)CC1)C2 (centres undefined) [Donepezil]	2.39	2.7
CC(C)[C@H](N)C(=O)OCCOCn1cnc2c(=O)nc(N)[nH]c21 [Valaciclovir]	3.41	3.8
COCC1=C(C(=O)OC(C)OC(=O)OC(C)C)N2C(=O)[C@@H](NC(=O)/C(=N\OC)c3csc(N)n3)[C@H]2SC1 (some centres undefined) [Cefpodoxime proxetil]	4.12	5.2
O=C(NCCN1CCOCC1)c1ccc(Cl)cc1 [Moclobemide]	3.74	3.8
COc1ccc2c3c1O[C@H]1C[C@@H](O)C=C[C@@]31CCN(C)C2 [Galantamine]	4.45	4.6
CN1CCCCC1CCN1c2ccccc2Sc2ccc([S+](C)[O-])cc21 (centres undefined) [Mesoridazine]	3.5	4
Cc1cn([C@H]2C=C[C@@H](CO)O2)c(=O)[nH]c1=O [Stavudine]	3.94 ± 0.05	4.45 ± 0.49
CC(=O)OCC(=O)[C@@]1(O)CC[C@H]2[C@@H]3C[C@H](C)C4=CC(=O)C=C[C@]4(C)[C@H]3[C@@H](O)C[C@@]21C [Methylprednisolone acetate]	4.44	4.4
CNCCCCOc1ccccc1Cc1ccccc1 [Bifemelane]	4.54	5.6
CCc1cccc2c3c([nH]c12)C(CC)(CC(=O)O)OCC3 (centres undefined) [Etodolac]	3.88	4.8
CNCC[C@@H](Oc1ccccc1C)c1ccccc1 [Atomoxetine]	3.54	4.7
CCOC(=O)C1=C(COCCN)NC(C)=C(C(=O)OC)C1c1ccccc1Cl (centres undefined) [Amlodipine]	4.85	> 40
Nc1nc(=O)c2nc(CNc3ccc(C(=O)N[C@@H](CCC(=O)O)C(=O)O)cc3)cnc2[nH]1 [Folic acid]	3.6	3.7
COc1ccc(C2CNC(=O)C2)cc1OC1CCCC1 (centres undefined) [Rolipram]	4.54	4.3
NC1CCN(c2nc3c(cc2F)c(=O)c(C(=O)O)cn3-c2ccc(F)cc2F)C1 (centres undefined) [Tosufloxacin]	3.85	4.1
OCCOCCN1CCN(C(c2ccccc2)c2ccc(Cl)cc2)CC1 (centres undefined) [Hydroxyzine pamoate salt]	3.88	4.4
CCn1cc(C(=O)O)c(=O)c2cc(F)c(N3CCNCC3)cc21 [Norfloxacin]	2.7	3.6
Nc1ncn([C@@H]2O[C@H](CO)[C@@H](O)[C@H]2O)c(=O)n1 [Azacitidine]	2.52	2.8
Oc1ccc(C2CNCCc3c2cc(O)c(O)c3Cl)cc1 (centres undefined) [Fenoldopam]	4.06	4.4

SMILES	total nuclei (1 µM)	total nuclei (5 µM)
CC1COc2c(N3CCN(C)CC3)c(F)cc3c(=O)c(C(=O)O)cn1c23 (centres undefined) [Ofloxacin]	4.11 ± 0.5	4.25 ± 0.49
CN1CCN2c3ncccc3Cc3ccccc3C2C1 (centres undefined) [Remergil]	2.3	2.3
Clc1ccc2nsnc2c1NC1=NCCN1 [Tizanidine]	3.24	2.9
CC1(C)S[C@@H]2[C@H](NC(=O)[C@H](N)c3ccc(O)cc3)C(=O)N2[C@H]1C(=O)O [Amoxicillin]	2.88	2.9
CC1CNc2c(cccc2S(=O)(=O)N[C@@H](CCCNC(=N)N)C(=O)N2CC[C@@H](C)C[C@@H]2C(=O)O)C1 (some centres undefined) [Argatroban]	5.1	4.1
CC(C)NCC(O)COc1ccc(CCOCC2CC2)cc1 (centres undefined) [Betaxolol]	2.65	2.6
Nc1cc(N2CCCCC2)nc(N)[n+]1[O-] [Minoxidil]	2.89	3.2
CN1CCC[C@H]1c1cccnc1 [Nicotine]	3.01	3
Nc1ccn([C@@H]2O[C@H](CO)[C@@H](O)[C@@H]2O)c(=O)n1 [Cytarabine]	> 40	> 40
C#C[C@]1(O)CC[C@H]2[C@@H]3CCC4=CC(=O)CC[C@@H]4[C@H]3CC[C@@]21CC [Levonorgestrel]	3.3	4.6
CCN(CC)CCOc1ccc(C(=C(Cl)c2ccccc2)c2ccccc2)cc1 [Clomiphene]	2.8	> 40
Nc1nc2ccc(Cl)cc2c2nc(-c3ccco3)nn12	4.37	6.5
CC[C@@H]1C(=O)OC[C@@H]1Cc1cncn1C [Pilocarpine]	3.9	4.8
CC(N)C12CC3CC(CC(C3)C1)C2 (centres undefined) [Rimantadine]	2.79	6.5
O=c1[nH]cnc2c1ncn2[C@H]1CC[C@@H](CO)O1 [2',3'-Dideoxyinosine]	3.03	3.3
COc1ccc(CN2CCN(C(c3ccc(F)cc3)c3ccc(F)cc3)CC2)c(OC)c1OC [Lomerizine]	3.01	4.9
CN1[C@@H]2CC[C@H]1C[C@@H](OC(=O)c1c[nH]c3ccccc13)C2 [Tropisetron]	3.67	4.2
Cc1ncc([N+](=O)[O-])n1CCO [Metronidazole]	3.46	3.3
CC#C[C@]1(O)CC[C@H]2[C@@H]3CCC4=CC(=O)CCC4=C3[C@@H](c3ccc(N(C)C)cc3)C[C@@]21C [Mifepristone]	3.17	> 40
COC1=CC(=O)C[C@@H](C)[C@]12Oc1c(Cl)c(OC)cc(OC)c1C2=O [Griseofulvin]	2.39	2.9
O=C(c1ccc(F)cc1)C1CCN(CCn2c(=S)[nH]c3ccccc3c2=O)CC1 [Altanserin]	2.86	2.8
CC1(C)O[C@@H]2C[C@H]3[C@@H]4CCC5=CC(=O)C=C[C@]5(C)[C@@]4(F)[C@@H](O)C[C@]3(C)[C@]2(C(=O)CO)O1 [Triamcinolone Acetonide]	3.28	2.9
Cc1c(OCC(F)(F)F)ccnc1C[S+]([O-])c1nc2ccccc2[nH]1 (centres undefined) [Lansoprazole]	3.3	4.5
Nc1nc2c(ncn2COCCO)c(=O)[nH]1 [Acyclovir]	3.9	6.1

Pulled by structure from the list above (2):
SMILES	total nuclei (1 µM)	total nuclei (5 µM)
CC#C[C@]1(O)CC[C@H]2[C@@H]3CCC4=CC(=O)CCC4=C3[C@@H](c3ccc(N(C)C)cc3)C[C@@]21C [Mifepristone]	3.17	> 40
COc1ccc(CN2CCN(C(c3ccc(F)cc3)c3ccc(F)cc3)CC2)c(OC)c1OC [Lomerizine]	3.01	4.9

The results go on:

SMILES	total nuclei (1 µM)	total nuclei (5 µM)
CCCC(=O)Nc1ccc(OCC(O)CNC(C)C)c(C(C)=O)c1 (centres undefined) [Acebutolol]	2.89	2.8
NS(=O)(=O)Cc1noc2ccccc12 [Zonisamide]	2.7	3.2
CC(C)OC(=O)C(C)(C)Oc1ccc(C(=O)c2ccc(Cl)cc2)cc1 [Fenofibrate]	3.81	8
C[C@]12CCC(=O)C=C1CC[C@@H]1[C@@H]2[C@@H](O)C[C@@]2(C)[C@H]1CC[C@]2(O)C(=O)COC(=O)CCC(=O)O [Cortisol succinate]	2.98	3
C/C=C1\[C@H]2C=C(C)C[C@]1(N)c1ccc(=O)[nH]c1C2 [Huperzine A]	3.68	3.6
CCN(CC)C(=O)C1(c2ccccc2)CC1CN (centres undefined) [Milnacipran]	2.69	2.7
CN(C)c1ccc(O)c2c1C[C@H]1C[C@H]3[C@H](N(C)C)C(O)=C(C(N)=O)C(=O)[C@@]3(O)C(O)=C1C2=O [Minocycline]	4.27	4.5
NS(=O)(=O)c1cc2c(cc1C(F)(F)F)NC(Cc1ccccc1)NS2(=O)=O (centres undefined) [Bendroflumethiazide]	2.52	2.3
O=C(O[C@H]1[C@H](Oc2ccccc2COC(=O)C2(O)C=CCCC2=O)O[C@H](CO)[C@@H](O)[C@@H]1O)c1ccccc1 (some centres undefined) [Tremulacin]	2.88	6.2
COc1ccc(CCN(C)CCCC(C#N)(c2ccc(OC)c(OC)c2)C(C)C)cc1OC (centres undefined) [Verapamil]	5.62	5.2
Cc1onc(-c2ccccc2)c1C(=O)N[C@@H]1C(=O)N2[C@@H]1SC(C)(C)[C@@H]2C(=O)O [Oxacillin]	2.23	2.4
CC(=O)SCC(Cc1ccccc1)C(=O)NCC(=O)OCc1ccccc1 (centres undefined) [Racecadotril]	5.94	5.4
Cc1occc(=O)c1O [Maltol]	2.81	2.9
CCCNCC(O)COc1ccccc1C(=O)CCc1ccccc1 (centres undefined) [Propafenone]	2.73	3.7
CC(CN1c2ccccc2Sc2ccccc21)N(C)C (centres undefined) [Promethazine]	3	4.7
NC(=O)OCC(COC(N)=O)c1ccccc1 [Felbamate]	2.7	2.8
O=C(O)/C=C/c1ccc(Cn2ccnc2)cc1 [Ozagrel]	3.06	2.9
CC(=O)[C@H]1CC[C@H]2[C@@H]3C[C@H](C)C4=CC(=O)CC[C@]4(C)[C@H]3[C@@H](O)C[C@]12C [Medrysone]	2.83	2.8
CNCCCC12CCC(c3ccccc31)c1ccccc12 [Maprotiline]	3.62	5.5
COc1c(N2C[C@@H]3CCCN[C@@H]3C2)c(F)cc2c(=O)c(C(=O)O)cn(C3CC3)c12 [Moxifloxacin]	3	2.9
COc1ccc(-c2oc3c(CC=C(C)C)c(O[C@@H]4O[C@H](CO)[C@@H](O)[C@H](O)[C@H]4O)cc(O)c3c(=O)c2O[C@@H]2O[C@@H](C)[C@H](O)[C@@H](O)[C@H]2O)cc1 [Icariin]	2.99	3.2
CN[C@H]1CC[C@@H](c2ccc(Cl)c(Cl)c2)c2ccccc21 [Sertraline]	4.92 ± 2.1	20.9
CC(C)[N+](C)(CCOC(=O)C1c2ccccc2Oc2ccccc21)C(C)C [Propantheline]	2.87	3.1
CCOC(=O)CCC(=O)O[C@H]1[C@H](O[C@@H]2[C@@H](C)[C@H](O[C@H]3C[C@@](C)(OC)[C@@H](O)[C@H](C)O3)[C@@H](C)C(=O)O[C@H](CC)[C@@](C)(O)[C@H](O)[C@@H](C)C(=O)[C@H](C)C[C@@]2(C)O)O[C@H](C)C[C@@H]1N(C)C [Erythromycin Ethylsuccinate]	2.85	2.8

An excerpt from above in order of SMILES length, descending:
SMILES	total nuclei (1 µM)	total nuclei (5 µM)
CC1CNc2c(cccc2S(=O)(=O)N[C@@H](CCCNC(=N)N)C(=O)N2CC[C@@H](C)C[C@@H]2C(=O)O)C1 (some centres undefined) [Argatroban]	5.1	4.1
CC(=O)SCC(Cc1ccccc1)C(=O)NCC(=O)OCc1ccccc1 (centres undefined) [Racecadotril]	5.94	5.4
COc1ccc(C2CNC(=O)C2)cc1OC1CCCC1 (centres undefined) [Rolipram]	4.54	4.3
